# Article doi:10.1101/751974
# The chains behind the UniProt entries cited, without tags or fusion partners.
# UniProt P27694: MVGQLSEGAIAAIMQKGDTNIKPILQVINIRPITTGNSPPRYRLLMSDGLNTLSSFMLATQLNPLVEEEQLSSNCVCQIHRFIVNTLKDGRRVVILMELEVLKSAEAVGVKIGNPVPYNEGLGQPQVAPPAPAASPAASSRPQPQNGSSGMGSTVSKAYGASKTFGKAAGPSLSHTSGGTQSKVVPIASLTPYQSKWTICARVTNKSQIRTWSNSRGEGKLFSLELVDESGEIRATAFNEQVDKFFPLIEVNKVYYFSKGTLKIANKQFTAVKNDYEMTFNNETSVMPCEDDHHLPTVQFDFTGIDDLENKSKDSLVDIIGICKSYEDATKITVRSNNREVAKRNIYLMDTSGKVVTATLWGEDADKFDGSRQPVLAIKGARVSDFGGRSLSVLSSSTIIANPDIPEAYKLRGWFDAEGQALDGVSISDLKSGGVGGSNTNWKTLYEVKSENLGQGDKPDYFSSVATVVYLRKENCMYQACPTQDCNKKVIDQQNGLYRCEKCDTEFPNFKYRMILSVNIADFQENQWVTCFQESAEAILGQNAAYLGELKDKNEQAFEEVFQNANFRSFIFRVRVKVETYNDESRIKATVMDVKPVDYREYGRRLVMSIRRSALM
# UniProt P15927: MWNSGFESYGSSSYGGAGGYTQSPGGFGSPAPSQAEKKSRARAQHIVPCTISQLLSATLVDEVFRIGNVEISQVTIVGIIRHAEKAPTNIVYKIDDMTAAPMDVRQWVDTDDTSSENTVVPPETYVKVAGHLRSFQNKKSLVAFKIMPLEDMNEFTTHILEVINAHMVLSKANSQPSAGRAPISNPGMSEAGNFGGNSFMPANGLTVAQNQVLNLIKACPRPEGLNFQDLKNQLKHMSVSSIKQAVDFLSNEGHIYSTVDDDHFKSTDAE
# Results are given in words; binding and its absence hold for the method and conditions named. Binding seen in cells or lysates may run through a third protein. Some entries that bind do so weakly or less than the wild type. For some assays here: Where a sequence is shown, tags or fusion partners need not be part of it.
# What was measured:
# HA-MCM8IP WT (human) = target: T1, HA-MCM8IP WT (human) (UniProt Q8N3J3); assay: co-IP
# T1 sequence: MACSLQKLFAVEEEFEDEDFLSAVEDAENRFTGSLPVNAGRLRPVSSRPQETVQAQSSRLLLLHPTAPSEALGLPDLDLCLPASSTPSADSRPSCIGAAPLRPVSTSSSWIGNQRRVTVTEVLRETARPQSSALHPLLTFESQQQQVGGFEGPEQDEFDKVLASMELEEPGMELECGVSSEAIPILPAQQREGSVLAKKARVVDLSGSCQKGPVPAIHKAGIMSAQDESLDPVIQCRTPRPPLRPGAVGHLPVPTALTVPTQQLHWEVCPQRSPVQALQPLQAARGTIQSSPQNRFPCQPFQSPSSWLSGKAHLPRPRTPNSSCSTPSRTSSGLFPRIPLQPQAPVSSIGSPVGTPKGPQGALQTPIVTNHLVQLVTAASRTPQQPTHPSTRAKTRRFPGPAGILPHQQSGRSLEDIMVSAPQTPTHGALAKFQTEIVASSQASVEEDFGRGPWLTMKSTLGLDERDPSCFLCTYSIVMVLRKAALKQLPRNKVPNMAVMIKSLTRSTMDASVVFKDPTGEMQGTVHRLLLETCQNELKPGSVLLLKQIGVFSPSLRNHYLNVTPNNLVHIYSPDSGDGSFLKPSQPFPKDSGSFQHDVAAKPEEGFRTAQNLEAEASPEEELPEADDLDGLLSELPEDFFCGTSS
# [1] = target: GST-MCM8IP, first 215 residues (human) (UniProt Q8N3J3); assay: pull-down
# [2] = target: GST-MCM8IP RBM (RPA-Binding Mutant) (human) (UniProt Q8N3J3); assay: pull-down
# GST-MCM8IP WT (human) = target: T2, GST-MCM8IP WT (human) (UniProt Q8N3J3); assay: pull-down
# T2 sequence: T1 sequence
Substance,binding (HA-MCM8IP WT (human)),binding [1],binding [2],binding (GST-MCM8IP WT (human))
"RPA1, endogenous (from UniProt P27694 1-616)",binds,,,
RPA1 expressed in bacteria (from UniProt P27694 1-616),,binds,no binding,binds
"RPA2, endogenous (from UniProt P15927 1-270)",binds,,,
